Source: the supplement of paper PMC3334620
In all, about 33,000 sequences were measured (“E-score (-0.5 to 0.5)”: median about -0.016, highest 2% from about 0.3 on). The list shows a part of the results.

These sequences were tested against T1, Yer184c (UniProt P39961) (assay: PBM E-score (8-mer binding enrichment) (E-score (-0.5 to 0.5)); higher = stronger / more preferred TF binding). Details: protein concentration: 100 nM; construct: GST-full length.
T1 sequence: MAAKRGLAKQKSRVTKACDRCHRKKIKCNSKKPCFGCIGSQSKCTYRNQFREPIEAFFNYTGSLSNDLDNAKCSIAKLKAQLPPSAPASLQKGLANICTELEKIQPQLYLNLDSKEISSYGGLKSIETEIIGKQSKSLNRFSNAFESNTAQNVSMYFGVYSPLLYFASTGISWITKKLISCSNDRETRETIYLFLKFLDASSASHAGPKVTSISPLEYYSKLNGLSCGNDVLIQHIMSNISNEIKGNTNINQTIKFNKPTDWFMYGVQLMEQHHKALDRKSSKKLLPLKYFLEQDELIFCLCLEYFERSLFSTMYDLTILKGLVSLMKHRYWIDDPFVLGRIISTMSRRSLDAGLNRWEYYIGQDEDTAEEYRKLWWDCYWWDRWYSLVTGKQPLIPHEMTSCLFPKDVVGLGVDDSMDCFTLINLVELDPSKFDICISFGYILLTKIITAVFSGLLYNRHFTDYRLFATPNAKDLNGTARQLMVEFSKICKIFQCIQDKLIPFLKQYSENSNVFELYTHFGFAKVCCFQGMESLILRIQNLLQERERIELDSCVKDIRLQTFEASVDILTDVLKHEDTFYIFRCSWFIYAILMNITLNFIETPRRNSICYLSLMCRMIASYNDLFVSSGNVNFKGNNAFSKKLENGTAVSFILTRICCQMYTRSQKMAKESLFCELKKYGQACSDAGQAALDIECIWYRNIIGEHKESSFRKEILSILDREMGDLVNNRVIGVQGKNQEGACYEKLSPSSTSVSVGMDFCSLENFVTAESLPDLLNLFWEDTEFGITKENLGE
Summary of the method: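 GST-tagged yeast TFs (full-length or DNA-binding domain) were made by PURExpress in vitro transcription/translation and applied at about 100-200 nM to universal all-10-mer Agilent arrays. The arrays were made double-stranded by primer extension, on fresh or once-stripped slides. Bound protein was detected with fluorescent anti-GST, and scans were normalised with masliner. Each ungapped eight-base word, pooled with its reverse complement, received an E-score (modified Wilcoxon-Mann-Whitney statistic) from the Universal PBM Analysis Suite.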

Sequence | PBM E-score
CATGATAG | -0.00316
CAAAGCGA | 0.0362
CCTTGCTC | -0.141
CGAACTTC | 0.13
AATACGGA | 0.22
GGCGCCTA | -0.0826
CTTTGTTC | 0.247
TAGAGCTA | -0.112
AACGAGAG | -0.0137
CCCACGGA | 0.157
AGATTAAT | 0.111
AAGGGTGT | -0.0275
ATGGTACG | 0.0122
GGTCTCAC | -0.117
AGCTGCCG | 0.21
ACCCCAGA | -0.295
GTCTACAA | -0.0519
AGACCCAG | -0.185
ACCCGCCA | -0.0982
CTCGGACC | 0.228
GAATAATC | 0.0439
CAGATTAA | 0.125

Sequence | PBM E-score
GTCTGAAA | 0.0228
AACCGTAA | -0.004
CTAAGCGC | -0.0432
CAGCCTGC | -0.145
ACAAGCAA | 0.111
AAGGACGG | -0.173
CGATGTAC | -0.0547
CCGTTCCG | 0.304
TCCCCCAA | -0.231
TGGCGGAA | -0.151
ACCGGAAA | 0.376
GGATTTAA | 0.0782
CTGTGATC | -0.0104
AAATCTAT | 0.206
GCCCATAC | -0.231
GATTATAC | 0.162
ATCCCCGC | -0.0515
AAGCCAGG | -0.251
CTACTCGC | -0.0504
TGCTGCAA | 0.0622
CCGACCAG | -0.0354
ATAGGTGA | -0.208

Pulled one by one from the entries so far, four records:
Sequence | PBM E-score
CAGCCTGC | -0.145
AAGCCAGG | -0.251
AAGGACGG | -0.173
GCCCATAC | -0.231

Next records follow.

Sequence | PBM E-score
CAGAGCAA | 0.108
CCGGAACC | 0.363
CATGACTC | -0.19
CTGGTGCA | -0.177
GGCGTCCC | -0.199
ATAATCTA | 0.0368
CGCCCTAA | -0.19
CAGCCAGC | -0.265
ATAAGACC | -0.119
CGCCGGAA | 0.368
AACCTTGA | 0.0783
ACCGGCCT | 0.0901
CTGTCCCC | -0.285
GACACCAA | 0.0918
CAAGGGAA | -0.0516
GACTGTCA | -0.00134
CTTTAATC | 0.141
CAGAAGTC | -0.209
TATAGCAA | 0.0619
ACCGCGCC | -0.0646
CACGAAAG | 0.0865
AGTGAACC | 0.0276

Sequence | PBM E-score
GTCTTAAA | 0.0285
CATACGTC | -0.0848
ACTTTACA | 0.0527
TATTGGAA | 0.0772
AGGCTCGG | 0.158
CAGCGCAC | -0.0919
ATTGCCGG | 0.348
CGCTCTAC | -0.175
CGGATAAA | 0.417
CCCGACTA | -0.0136
GCAGGGGC | -0.218
AGAAACCG | 0.0973
GTCTGATA | -0.0901
GATCGCTA | -0.0688
GCACTGGA | -0.166
AAAGTAGA | 0.0403
CTCAGGGA | -0.29
GCCAATCC | 0.0935
CTCGACGA | -0.1
CCTGCTCG | -0.156
